The series in a line: MTT assay, cytotoxicity on normal breast cells MCF-10A. Format: cell-based. The settings on record: human, MCF-10A cells (normal breast cells). On the technique in general: Tetrazolium assays rely on reduction of a dye to a coloured formazan, in cell work by metabolically active cells.

By IC50 is commonly meant the concentration at which inhibition is half-maximal. Read a low IC50 as higher potency. `CN[C@@H]1C[C@H]2O[C@@](C)([C@@H]1OC)n1c3ccccc3c3c4c(c5c6ccccc6n2c5c31)C(=O)NC4` [staurosporine, reference compound] gave a 50% inhibitory concentration (IC50) at 48 h of 26.7 ± 1.62 µM.

Values taken from publication PMC10633821 (RSC Advances, 2023).
